Measurements from the supplement of paper PMC12067093, “Discovery and optimisation of a covalent ligand for TRIM25 and its application to targeted protein ubiquitination” (Chemical Science, 2025).
The other results are listed elsewhere or left out.

Compound: Cc1cc(ccc1-c1ccccc1)C(=O)N1CCCN(CC1)C(=O)CCl [compound 10]
Assay: probe-labelled cysteine peptide fold change vs DMSO (competition) (log2 fold change); higher = less target engagement (more negative = stronger competition)
Conditions: THP-1, incubation time: 4 h
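Also: competitive profiling in live THP-1 cells: cysteine peptides tagged with an iodoacetamide desthiobiotin (IA-DTB) probe, intensity after compound treatment relative to DMSO-treated cells.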

Target	probe-labelled cysteine peptide fold change (10 µM)	probe-labelled cysteine peptide fold change (50 µM)
PPP2R1A_P30153_317_EFCENLSADCR (UniProt P30153)	-0.168	0.0856
PRC1_O43663_236_SQNEAVCEGLR (UniProt O43663)	0.388	0.159
PPP1R9B_Q96SB3_732_LEGYWGEAQSLCQAVDEHLR (UniProt Q96SB3)	0.13	0.178
PREPL_Q4J6C6_184_IRTEDSEASTCVIIK (UniProt Q4J6C6)	0.143	0.142
PPP1R27_Q86WC6_79_VSLATIHPSGLAALHEAVLSGNLECVK (UniProt Q86WC6)	0.381	0.28
PPP5C_P53041_382_NRQPPDSGPMCDLLWSDPQPQNGR (UniProt P53041)	-0.163	0.0203
PPP6C_O00743_265_CGNIASIMVFK (UniProt O00743)	0.123	-0.157
PPOX_P50336_167_LGPEVASLAMDSLCR (UniProt P50336)	0.349	0.124
PPP6R3_Q5H9R7_216_LVEIVHPSQEEDRHSNASQSLCEIVR (UniProt Q5H9R7)	0.00978	-0.0251
PREX1_Q8TCU6_968+972_QAPLEPHPLCGLDFCPTNCHINLMEVSYPK (UniProt Q8TCU6)	-0.292	-0.787
PREX1_Q8TCU6_52_LCVLNEILGTERDYVGTLR (UniProt Q8TCU6)	-0.0586	-0.351
PPM1B_O75688_149_HIYFINCGDSR (UniProt O75688)	-0.0762	-0.0325
PRCP_P42785_394_ELSDDCFQQWGVRPR (UniProt P42785)	0.0699	0.275
PPP6R2_O75170_216_QSNASQTLCDIVR (UniProt O75170)	0.0523	-0.189
PPP1R3D_O95685_279_DYSLTCR (UniProt O95685)	0.323	0.684
PPP1CB_P62140_244_FLNRHDLDLICR (UniProt P62140)	0.0374	-0.0314
PPP4R3B_Q5MIZ7_98_ICQVQGK (UniProt Q5MIZ7)	0.138	0.0388
PRDX2_P32119_172_LVQAFQYTDEHGEVCPAGWKPGSDTIKPNVDDSK (UniProt P32119)	-0.0563	-0.154
PPT1_P50897_152_CPGESSHICDFIRK (UniProt P50897)	-0.178	-0.505
PRDX5_P30044_100_GVLFGVPGAFTPGCSK (UniProt P30044)	-0.408	-0.68
PPP1R10_Q96QC0_912_GHDGGHSHGGDMSNRPVCR (UniProt Q96QC0)	0.0852	-0.0876

Target	probe-labelled cysteine peptide fold change (10 µM)	probe-labelled cysteine peptide fold change (50 µM)
PPP6C_O00743_262_LVTVWSAPNYCYR (UniProt O00743)	0.0166	-0.0458
PRC1_O43663_80_ELNTLCSELHVEPFQEEGETTILQLEK (UniProt O43663)	0.288	0.298
PPM1A_P35813_268_VCNEVVDTCLYK (UniProt P35813)	0.0697	0.0497
PPP1R12C_Q9BZL4_211_CWLNGGAMPEAR (UniProt Q9BZL4)	-0.106	-0.624
PREP_P48147_57_ITVPFLEQCPIR (UniProt P48147)	-0.283	-0.0531
PPP5C_P53041_77_TECYGYALGDATR (UniProt P53041)	0.174	0.189
PPM1H_Q9ULR3_56_FPYGRPEFLGLSQDEVECSADHIARPILILK (UniProt Q9ULR3)	-0.0772	0.121
PPP1CC_P36873_245_FLHKHDLDLICR (UniProt P36873)	-0.206	-0.72
PREP_P48147_343_VLVPEHEKDVLEWIACVR (UniProt P48147)	-0.124	-0.594
PPP2R5A_Q15172_72_DATSNEQQELFCQK (UniProt Q15172)	0.0287	-0.096
PPP4R1_Q8TF05_198_TEAVAIMCK (UniProt Q8TF05)	0.224	0.0475
PREX1_Q8TCU6_963_QAPLEPHPLCGLDFCPTNCHINLMEVSYPK (UniProt Q8TCU6)	0.103	-0.112
PREP_P48147_532_QNCFDDFQCAAEYLIK (UniProt P48147)	-0.0411	0.182
PPP6R2_O75170_880_LLSPACPAPK (UniProt O75170)	-0.471	0.267
PPP2R1A_P30153_504+512_MTTLFCINVLSEVCGQDITTK (UniProt P30153)	0.378	0.195
PPP6R1_Q9UPN7_216_LIEQIHPSKDENQHSNASQSLCDIIR (UniProt Q9UPN7)	-0.27	-0.696
PPIP5K2_O43314_164_ECNLIEGEDHVEVNGEVFQK (UniProt O43314)	0.0269	0.119
PPM1G_O15355_13_CSGDGVGAPR (UniProt O15355)	-0.102	-0.117
PPP1R3D_O95685_60_APPPTPAPSGCDPR (UniProt O95685)	-0.238	-0.331
PRDX1_Q06830_71+83_KLNCQVIGASVDSHFCHLAWVNTPK (UniProt Q06830)	0.0063	-0.175
PPWD1_Q96BP3_512_LFPVECPK (UniProt Q96BP3)	-0.232	-0.00453

Given bar-delimited: part of the list above.
Target | probe-labelled cysteine peptide fold change (10 µM) | probe-labelled cysteine peptide fold change (50 µM)
PPM1A_P35813_268_VCNEVVDTCLYK (UniProt P35813) | 0.0697 | 0.0497
PPP1R12C_Q9BZL4_211_CWLNGGAMPEAR (UniProt Q9BZL4) | -0.106 | -0.624

The list continues:

Target	probe-labelled cysteine peptide fold change (10 µM)	probe-labelled cysteine peptide fold change (50 µM)
PPP6R1_Q9UPN7_455_ILTSWEENDRVQCAGGPR (UniProt Q9UPN7)	-0.0545	-0.0783
PREPL_Q4J6C6_538_LNGLADLEACIK (UniProt Q4J6C6)	0.14	0.28
PPP3CA_Q08209_256_GCSYFYSYPAVCEFLQHNNLLSILR (UniProt Q08209)	-0.271	-0.0718
PPT1_P50897_152_CPGESSHICDFIR (UniProt P50897)	-0.202	-0.114
PPP2R1A_P30153_377_DNTIEHLLPLFLAQLKDECPEVR (UniProt P30153)	-0.217	-0.731
PPP4R2_Q9NY27_30_EVCPVLDQFLCHVAK (UniProt Q9NY27)	0.0564	-0.311
PPM1E_Q8WY54_307_QEMFPHDPAEALCR (UniProt Q8WY54)	-0.144	-0.28
PPP1R8_Q12972_58_NPDLCDFTIDHQSCSR (UniProt Q12972)	0.202	0.123
PREB_Q9HCU5_90_ATMNLALAGDILAAGQDAHCQLLR (UniProt Q9HCU5)	-0.193	-0.0621
PRDX4_Q13162_245_HGEVCPAGWKPGSETIIPDPAGK (UniProt Q13162)	-0.102	-0.0328
PPP6R2_O75170_366_LMAALLHTNTPSINQELCR (UniProt O75170)	0.207	0.414
PPP1R21_Q6ZMI0_516_AASGFISPLSAECMLQYK (UniProt Q6ZMI0)	-0.165	0.0519
PRDX4_Q13162_51_TREEECHFYAGGQVYPGEASR (UniProt Q13162)	-0.132	0.0047
PRAM1_Q96QH2_629_RGEILEVIEFTSNEEMLCRDPK (UniProt Q96QH2)	-0.0126	-0.0245
PPP1CB_P62140_61_ICGDIHGQYTDLLR (UniProt P62140)	0.129	0.183
PREX1_Q8TCU6_120_DFLAALEYCLHPEPQSQHELGNVFLK (UniProt Q8TCU6)	0.306	0.0629
PPP6R3_Q5H9R7_467_IANCIVHSTDK (UniProt Q5H9R7)	0.0425	-0.0919
PPP6R3_Q5H9R7_431_CQLIER (UniProt Q5H9R7)	0.142	0.135
PREX1_Q8TCU6_558_LVDWLLAQGDCQTR (UniProt Q8TCU6)	0.0221	0.0375
PPP1CC_P36873_202_RIMRPTDVPDQGLLCDLLWSDPDKDVLGWGENDR (UniProt P36873)	-0.051	-0.733
PRC1_O43663_136_LLQEQDQELCEILCMPHYDIDSASVPSLEELNQFR (UniProt O43663)	-0.0146	-0.0476

Target	probe-labelled cysteine peptide fold change (10 µM)	probe-labelled cysteine peptide fold change (50 µM)
PPIP5K2_O43314_488_VQLTYLPHGCPK (UniProt O43314)	-0.0857	-0.304
PPP4R2_Q9NY27_22+30_EVCPVLDQFLCHVAK (UniProt Q9NY27)	-0.437	-0.442
PPP1R3D_O95685_291_GECEESWIHFI (UniProt O95685)	-0.0489	-0.485
PPOX_P50336_258_GQPVCGLSLQAEGR (UniProt P50336)	-0.104	0.0901
PREX1_Q8TCU6_936_IACYQEFAAQLK (UniProt Q8TCU6)	0.102	-0.184
PRDX2_P32119_172_LVQAFQYTDEHGEVCPAGWKPGSDTIK (UniProt P32119)	-0.0956	0.443
PPIP5K2_O43314_164_ECNLIEGEDHVEVNGEVFQKPFVEK (UniProt O43314)	0.0459	-0.425
PPP1R11_O60927_62_CCCIYEK (UniProt O60927)	-0.000995	-0.111
PPM1F_P49593_359_ALTGSEDYLLLACDGFFDVVPHQEVVGLVQSHLTR (UniProt P49593)	-0.274	-0.206
PREPL_Q4J6C6_391_LPPWACGFIMDTNSDPK (UniProt Q4J6C6)	-0.0878	-0.273
PPP2R1A_P30153_504_MTTLFCINVLSEVCGQDITTK (UniProt P30153)	-0.0539	0.11
PPP2R1B_P30154_524_MTTLFCINALSEACGQEITTK (UniProt P30154)	0.149	0.116
PPP5C_P53041_208_CAYQILVQVK (UniProt P53041)	0.218	-0.0816
PPP6R3_Q5H9R7_830_LSTSQDAACK (UniProt Q5H9R7)	-0.432	-0.549
PPIP5K2_O43314_615_SANMNGLLDSDSDSLSSCQQR (UniProt O43314)	-0.167	-0.252
PPM1L_Q5SGD2_340_GCPDNITVMVVK (UniProt Q5SGD2)	-0.0702	0.0995
PPP2R5C_Q13362_50_QCCVLFDFVSDPLSDLK (UniProt Q13362)	-0.00357	-0.0849
PRDX3_P30048_60_LFSTSSSCHAPAVTQHAPYFK (UniProt P30048)	-0.0465	0.0639
